Laboratory results as given in the supplement of paper PMC10849652.
Some of the results follow.

Chains of the proteins cited; added tags and fusions are not shown. Lines headed by an entry give the natural chain unless they say otherwise; changes in a name come on top.
UniProt Q96GU1: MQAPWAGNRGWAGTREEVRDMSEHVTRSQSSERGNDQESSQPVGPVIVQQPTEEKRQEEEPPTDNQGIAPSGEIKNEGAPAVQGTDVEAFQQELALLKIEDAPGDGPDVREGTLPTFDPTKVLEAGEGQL
UniProt O75147: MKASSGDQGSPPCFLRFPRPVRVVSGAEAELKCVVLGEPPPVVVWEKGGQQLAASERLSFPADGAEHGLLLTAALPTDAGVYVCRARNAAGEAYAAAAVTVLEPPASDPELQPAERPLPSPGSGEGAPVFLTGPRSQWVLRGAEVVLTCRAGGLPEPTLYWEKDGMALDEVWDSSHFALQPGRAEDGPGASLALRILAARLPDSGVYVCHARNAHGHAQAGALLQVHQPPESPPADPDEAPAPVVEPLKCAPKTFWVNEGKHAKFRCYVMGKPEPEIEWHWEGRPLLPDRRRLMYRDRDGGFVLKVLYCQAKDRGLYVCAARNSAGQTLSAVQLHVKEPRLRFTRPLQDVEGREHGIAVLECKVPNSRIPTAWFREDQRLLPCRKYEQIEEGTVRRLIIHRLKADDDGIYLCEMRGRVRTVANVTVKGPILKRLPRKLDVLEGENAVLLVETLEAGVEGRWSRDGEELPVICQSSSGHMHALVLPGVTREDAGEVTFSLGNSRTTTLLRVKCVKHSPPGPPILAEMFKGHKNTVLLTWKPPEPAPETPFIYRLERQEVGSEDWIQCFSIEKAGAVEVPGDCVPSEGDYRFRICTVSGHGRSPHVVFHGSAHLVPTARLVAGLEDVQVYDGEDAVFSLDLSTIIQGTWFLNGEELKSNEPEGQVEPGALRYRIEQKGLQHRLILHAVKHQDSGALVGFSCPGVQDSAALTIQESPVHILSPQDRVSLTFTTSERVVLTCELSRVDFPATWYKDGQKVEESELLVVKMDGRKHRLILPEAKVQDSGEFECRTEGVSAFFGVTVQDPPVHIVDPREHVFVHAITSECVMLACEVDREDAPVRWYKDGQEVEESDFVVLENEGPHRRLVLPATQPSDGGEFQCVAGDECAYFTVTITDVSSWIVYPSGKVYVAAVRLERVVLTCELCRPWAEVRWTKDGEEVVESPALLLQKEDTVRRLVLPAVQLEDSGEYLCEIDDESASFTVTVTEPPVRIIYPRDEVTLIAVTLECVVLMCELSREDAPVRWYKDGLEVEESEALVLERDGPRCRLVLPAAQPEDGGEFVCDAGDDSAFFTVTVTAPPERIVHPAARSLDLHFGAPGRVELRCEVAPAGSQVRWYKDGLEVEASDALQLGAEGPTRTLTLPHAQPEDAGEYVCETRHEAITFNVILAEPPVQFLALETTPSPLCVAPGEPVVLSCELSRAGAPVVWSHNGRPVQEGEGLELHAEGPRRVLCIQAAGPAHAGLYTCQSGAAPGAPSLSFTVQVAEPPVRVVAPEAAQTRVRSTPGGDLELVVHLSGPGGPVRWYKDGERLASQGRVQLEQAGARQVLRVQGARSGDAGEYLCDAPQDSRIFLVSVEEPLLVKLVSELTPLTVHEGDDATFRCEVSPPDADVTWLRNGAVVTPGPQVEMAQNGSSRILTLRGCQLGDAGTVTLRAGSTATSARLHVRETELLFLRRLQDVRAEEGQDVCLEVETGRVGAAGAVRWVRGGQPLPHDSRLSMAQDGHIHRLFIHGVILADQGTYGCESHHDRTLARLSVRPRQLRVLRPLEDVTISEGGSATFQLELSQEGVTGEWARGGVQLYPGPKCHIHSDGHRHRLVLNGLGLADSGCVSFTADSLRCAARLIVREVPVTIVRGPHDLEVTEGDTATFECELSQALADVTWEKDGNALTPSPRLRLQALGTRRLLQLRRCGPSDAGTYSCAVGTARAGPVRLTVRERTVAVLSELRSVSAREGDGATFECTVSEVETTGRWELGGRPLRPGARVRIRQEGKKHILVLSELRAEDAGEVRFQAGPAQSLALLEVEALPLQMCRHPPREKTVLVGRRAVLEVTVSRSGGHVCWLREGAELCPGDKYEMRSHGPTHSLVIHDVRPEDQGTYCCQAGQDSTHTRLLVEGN
UniProt Q8NFH3: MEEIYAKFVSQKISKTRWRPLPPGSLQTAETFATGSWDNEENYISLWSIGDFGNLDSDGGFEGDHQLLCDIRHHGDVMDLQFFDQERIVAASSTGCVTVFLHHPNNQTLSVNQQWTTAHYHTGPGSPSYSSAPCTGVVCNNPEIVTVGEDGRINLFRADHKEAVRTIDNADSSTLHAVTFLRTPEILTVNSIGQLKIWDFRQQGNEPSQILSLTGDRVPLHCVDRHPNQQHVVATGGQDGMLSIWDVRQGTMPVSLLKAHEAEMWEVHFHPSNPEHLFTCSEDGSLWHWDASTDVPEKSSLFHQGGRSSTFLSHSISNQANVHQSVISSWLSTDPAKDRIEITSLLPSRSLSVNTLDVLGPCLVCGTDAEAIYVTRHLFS
UniProt Q9UKK6: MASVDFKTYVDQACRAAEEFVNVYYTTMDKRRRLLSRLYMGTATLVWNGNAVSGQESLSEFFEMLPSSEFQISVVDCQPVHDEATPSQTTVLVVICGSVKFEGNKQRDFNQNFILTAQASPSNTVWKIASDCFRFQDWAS
UniProt Q9H8K7: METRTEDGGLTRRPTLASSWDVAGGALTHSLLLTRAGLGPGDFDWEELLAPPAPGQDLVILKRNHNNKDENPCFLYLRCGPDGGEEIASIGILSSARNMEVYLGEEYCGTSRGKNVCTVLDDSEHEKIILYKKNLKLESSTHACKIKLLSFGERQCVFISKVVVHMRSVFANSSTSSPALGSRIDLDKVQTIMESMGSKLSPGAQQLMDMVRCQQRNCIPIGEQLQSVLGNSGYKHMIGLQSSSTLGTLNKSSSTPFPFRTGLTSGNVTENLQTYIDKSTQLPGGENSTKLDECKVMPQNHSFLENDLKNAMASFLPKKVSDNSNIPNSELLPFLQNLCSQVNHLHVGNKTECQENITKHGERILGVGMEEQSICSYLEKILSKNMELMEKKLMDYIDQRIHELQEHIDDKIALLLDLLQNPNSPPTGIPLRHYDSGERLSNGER
UniProt Q9H999: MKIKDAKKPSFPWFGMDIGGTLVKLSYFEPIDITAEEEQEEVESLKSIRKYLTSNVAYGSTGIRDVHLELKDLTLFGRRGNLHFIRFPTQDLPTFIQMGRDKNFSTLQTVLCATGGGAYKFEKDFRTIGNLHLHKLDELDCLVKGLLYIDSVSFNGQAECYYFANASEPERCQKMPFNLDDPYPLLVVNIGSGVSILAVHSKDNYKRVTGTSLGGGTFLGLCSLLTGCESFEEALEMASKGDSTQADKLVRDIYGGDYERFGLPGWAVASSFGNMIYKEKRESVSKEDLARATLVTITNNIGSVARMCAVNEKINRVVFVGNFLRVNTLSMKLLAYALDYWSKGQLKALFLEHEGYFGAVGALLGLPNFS
UniProt Q9H4B0: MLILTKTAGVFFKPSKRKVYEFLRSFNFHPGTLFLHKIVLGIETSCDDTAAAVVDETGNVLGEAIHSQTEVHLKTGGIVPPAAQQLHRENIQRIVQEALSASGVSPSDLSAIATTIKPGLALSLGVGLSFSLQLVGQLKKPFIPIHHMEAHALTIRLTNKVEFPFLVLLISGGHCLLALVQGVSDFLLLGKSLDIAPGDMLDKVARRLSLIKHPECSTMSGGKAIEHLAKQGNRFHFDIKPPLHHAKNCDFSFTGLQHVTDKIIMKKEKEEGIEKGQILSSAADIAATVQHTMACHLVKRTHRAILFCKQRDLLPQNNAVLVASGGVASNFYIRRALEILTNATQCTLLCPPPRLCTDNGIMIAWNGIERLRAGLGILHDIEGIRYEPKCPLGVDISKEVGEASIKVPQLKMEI

Experiments:
Assay in all cases: log2 fold change, soluble protein after heating vs DMSO (PISA); higher = thermal stabilisation; K562 lysate, 10 uM; active = over 0.2 and 3.5 SD of the protein, either way, in both replicates (recomputed)
lapatinib = compound: CS(=O)(=O)CCNCc1ccc(-c2ccc3ncnc(Nc4ccc(OCc5cccc(F)c5)c(Cl)c4)c3c2)o1 [lapatinib]
How it was run: (§1)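 Log-two fold change in thermal stability relative to solvent controls is reported from duplicates. For each sample, crude K562 extract from dounce-homogenised pellets in PBS pH 7.4 with 1 mM MgCl2, at 1 mg/mL protein, was treated with 10 μM compound for 30 min. Aliquots heated for 3 min across 48°C-58°C were pooled, brought to 0.5% NP-40 at 4°C and cleared at 21,000xg for 90 min. The supernatant was quantified by TMTpro 16plex LC-MS/MS with channel sums equalised.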

pictilisib = compound: CS(=O)(=O)N1CCN(Cc2cc3nc(-c4cccc5[nH]ncc45)nc(N4CCOCC4)c3s2)CC1 [pictilisib]
How it was run: as §1

crizotinib = compound: C[C@@H](Oc1cc(-c2cnn(C3CCNCC3)c2)cnc1N)c1c(Cl)ccc(F)c1Cl [crizotinib]
How it was run: as §1

[1] = compound: C[C@H](C1=CC=C(C=C1)C(=O)NC2=C3C=CNC3=NC=C2)N
How it was run: as §1

duvelisib = compound: C[C@H](Nc1ncnc2nc[nH]c12)c1cc2cccc(Cl)c2c(=O)n1-c1ccccc1 [duvelisib]
How it was run: as §1

gandotinib = compound: Cc1cc(Nc2cc(CN3CCOCC3)c3nc(C)c(Cc4ccc(Cl)cc4F)n3n2)n[nH]1 [gandotinib]
How it was run: as §1

tozasertib = compound: Cc1cc(Nc2cc(N3CCN(C)CC3)nc(Sc3ccc(NC(=O)C4CC4)cc3)n2)n[nH]1 [tozasertib]
How it was run: as §1

doramapimod = compound: Cc1ccc(-n2nc(C(C)(C)C)cc2NC(=O)Nc2ccc(OCCN3CCOCC3)c3ccccc23)cc1 [doramapimod]
How it was run: as §1

bafetinib = compound: Cc1ccc(NC(=O)c2ccc(CN3CC[C@H](N(C)C)C3)c(C(F)(F)F)c2)cc1Nc1nccc(-c2cncnc2)n1 [bafetinib]
How it was run: as §1

[2] = compound: Cc1cccc(CC(=O)N2CCc3c2ccc(-c2cn(C)c4ncnc(N)c24)c3F)n1
How it was run: as §1

nilotinib = compound: Cc1cn(-c2cc(NC(=O)c3ccc(C)c(Nc4nccc(-c5cccnc5)n4)c3)cc(C(F)(F)F)c2)cn1 [nilotinib]
How it was run: as §1

[3] = compound: Cc1nc(Nc2n[nH]c3c2CN(C(=O)N[C@H](CN(C)C)c2ccccc2)C3(C)C)c2sccc2n1
How it was run: as §1

dasatinib = compound: Cc1nc(Nc2ncc(C(=O)Nc3c(C)cccc3Cl)s2)cc(N2CCN(CCO)CC2)n1 [dasatinib]
How it was run: as §1

[4] = compound: Cc1ncc(-c2ccnc(Nc3ccc(S(C)(=O)=O)cc3)n2)n1C(C)C
How it was run: as §1

[5] = compound: Cn1cc(-c2ccc3c(c2)CCN3C(=O)Cc2cccc(C(F)(F)F)c2)c2c(N)ncnc21
How it was run: as §1

quisinostat = compound: Cn1cc(CNCC2CCN(c3ncc(C(=O)NO)cn3)CC2)c2ccccc21 [quisinostat]
How it was run: as §1

tipifarnib = compound: Cn1cncc1[C@@](N)(c1ccc(Cl)cc1)c1ccc2c(c1)c(-c1cccc(Cl)c1)cc(=O)n2C [tipifarnib]
How it was run: as §1

[6] = compound: NC(=O)Nc1cc(-c2cccc(F)c2)sc1C(=O)N[C@H]1CCCNC1
How it was run: as §1

[7] = compound: NC(=O)c1cnc(N[C@@H]2CCCC[C@@H]2N)nc1Nc1cccc(-n2nccn2)c1
How it was run: as §1

[8] = compound: NC1(c2ccc(-c3nc4ccn5c(=O)[nH]nc5c4cc3-c3ccccc3)cc2)CCC1
How it was run: as §1

Measured: log2 fold change

PAGE5 (UniProt Q96GU1)
inactive: lapatinib 0.051 | pictilisib 0.04 | crizotinib 0.035 | [1] 0.337 | duvelisib 0.023 | gandotinib -0.163 | tozasertib 0.007 | doramapimod -0.082 | bafetinib -0.03 | [2] -0.17 | nilotinib -0.003 | [3] 0.045 | dasatinib 0.017 | [4] 0.318 | [5] -0.03 | quisinostat 0.002 | tipifarnib 0.021 | [6] -0.012 | [7] -0.035 | [8] 0.012

OBSL1 (UniProt O75147)
inactive: lapatinib -0.037 | pictilisib -0.005 | crizotinib 0.045 | [1] -0.038 | duvelisib 0.03 | gandotinib 0.017 | tozasertib 0.015 | doramapimod 0.098 | bafetinib -0.003 | [2] 0.036 | nilotinib -0.026 | [3] -0.045 | dasatinib -0.01 | [4] -0.057 | [5] 0.02 | quisinostat -0.053 | tipifarnib -0.04 | [6] 0.108 | [7] 0.048 | [8] -0.038

NUP43 (UniProt Q8NFH3)
inactive: lapatinib -0.021 | pictilisib -0.012 | crizotinib 0.015 | [1] -0.025 | duvelisib -0.012 | gandotinib 0.053 | tozasertib -0.005 | doramapimod -0.011 | bafetinib -0.045 | [2] 0.009 | nilotinib 0.035 | [3] -0.014 | dasatinib 0.007 | [4] -0.018 | [5] -0.045 | quisinostat 0.012 | tipifarnib -0.002 | [6] 0.037 | [7] -0.013 | [8] -0.012

Reprinted at random: 2 records from the list.
NUP43 (UniProt Q8NFH3)
inactive: lapatinib -0.021 | pictilisib -0.012 | crizotinib 0.015 | [1] -0.025 | duvelisib -0.012 | gandotinib 0.053 | tozasertib -0.005 | doramapimod -0.011 | bafetinib -0.045 | [2] 0.009 | nilotinib 0.035 | [3] -0.014 | dasatinib 0.007 | [4] -0.018 | [5] -0.045 | quisinostat 0.012 | tipifarnib -0.002 | [6] 0.037 | [7] -0.013 | [8] -0.012

OBSL1 (UniProt O75147)
inactive: lapatinib -0.037 | pictilisib -0.005 | crizotinib 0.045 | [1] -0.038 | duvelisib 0.03 | gandotinib 0.017 | tozasertib 0.015 | doramapimod 0.098 | bafetinib -0.003 | [2] 0.036 | nilotinib -0.026 | [3] -0.045 | dasatinib -0.01 | [4] -0.057 | [5] 0.02 | quisinostat -0.053 | tipifarnib -0.04 | [6] 0.108 | [7] 0.048 | [8] -0.038

Next part

NXPE1 (UniProt F5H0Y6)
inactive: lapatinib -0.131 | pictilisib -0.12 | bafetinib -0.21 | [7] 0.05

NXT1 (UniProt Q9UKK6)
inactive: lapatinib -0.036 | pictilisib -0.071 | [1] -0.075 | gandotinib 0.16 | bafetinib -0.368 | [2] 0.232 | nilotinib 0.053 | [3] -0.163 | [4] -0.058 | tipifarnib -0.092 | [7] 0.063 | [8] 0.084

PAAT (UniProt Q9H8K7)
inactive: lapatinib 0.009 | pictilisib -0.017 | crizotinib -0.213 | [1] -0.016 | duvelisib -0.029 | gandotinib 0.033 | tozasertib 0.032 | doramapimod -0.035 | bafetinib 0 | [2] -0.073 | dasatinib 0.007 | [5] 0.027 | quisinostat -0.165 | [6] 0.012 | [7] -0.022 | [8] 0.065

PANK3 (UniProt Q9H999)
inactive: lapatinib 0.071 | pictilisib 0.092 | [1] -0.006 | duvelisib -0.29 | gandotinib -0.092 | tozasertib 0.131 | bafetinib -0.144 | [2] 0.039 | nilotinib -0.124 | [3] -0.04 | dasatinib -0.159 | [4] -0.042 | [5] -0.053 | tipifarnib -0.125 | [7] 0.184 | [8] -0.138

OSGEPL1 (UniProt Q9H4B0)
inactive: lapatinib -0.025 | pictilisib -0.015 | crizotinib -0.079 | tozasertib 0.063 | doramapimod 0.037 | bafetinib -0.076 | quisinostat -0.285 | [6] 0.098 | [7] 0.371
